Source: PubChem BioAssay AID1259308 (NCATS, 2017)
Purpose: 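Knock-downs that increase output of a recombinant reporter protein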 (primary screen). Cell system: human HEK293 embryonic kidney cells stably expressing firefly luciferase (HEK-CMV-Luc2-Hygro). Knock-down reagent: single siRNA against human genes, 0.8 pmol siRNA per well. Duration: 72 h. Measurement: 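Reporter luminescence and viable-cell signal on separate replicate plates, given as percent of non-targeting control and median/MAD z-scores, plus per-cell luciferase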. Reading the numbers: total luciferase, z-score: higher = more reporter protein produced. Active means: 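Active when the median/MAD z-score for overall luciferase is greater than 3; a gene was taken forward for validation with new siRNAs if at least two of its three siRNAs passed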. Calls: active = raised luciferase; inactive = no rise.
The deposit covers about 59,000 reagents; this is a random part of them. About 1,510 of them (2.6%) were called active. 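Calls use total luciferase alone and ignore viability, so some active siRNAs may act by altering cell number.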 Reagents against one gene are numbered here. Not all columns of the deposit are shown. Reagent sequences are not shown.

C19orf48P (chromosome 19 open reading frame 48, pseudogene) #1 — total luciferase, z-score: 0.559; activity call: inactive
C19orf48P (chromosome 19 open reading frame 48, pseudogene) #2 — total luciferase, z-score: -1.71; activity call: inactive
C19orf48P (chromosome 19 open reading frame 48, pseudogene) #3 — total luciferase, z-score: -1.04; activity call: inactive
CLK3 (CDC like kinase 3) #1 — total luciferase, z-score: -1.24; activity call: inactive
CLK3 (CDC like kinase 3) #2 — total luciferase, z-score: -1.45; activity call: inactive
CLK3 (CDC like kinase 3) #3 — total luciferase, z-score: -0.263; activity call: inactive
OGFOD1 #1 — total luciferase, z-score: -0.171; activity call: inactive
OGFOD1 #2 — total luciferase, z-score: -1.27; activity call: inactive
OGFOD1 #3 — total luciferase, z-score: 1.65; activity call: inactive
ZNF582 (zinc finger protein 582) #1 — total luciferase, z-score: -1.04; activity call: inactive
ZNF582 (zinc finger protein 582) #2 — total luciferase, z-score: 1.66; activity call: inactive
ZNF582 (zinc finger protein 582) #3 — total luciferase, z-score: -1.1; activity call: inactive
BAZ2B-AS1 (BAZ2B antisense RNA 1) #1 — total luciferase, z-score: 0.406; activity call: inactive
BAZ2B-AS1 (BAZ2B antisense RNA 1) #2 — total luciferase, z-score: 0.84; activity call: inactive
BAZ2B-AS1 (BAZ2B antisense RNA 1) #3 — total luciferase, z-score: 0.398; activity call: inactive
METTL23 (methyltransferase 23, arginine) #1 — total luciferase, z-score: -0.71; activity call: inactive
METTL23 (methyltransferase 23, arginine) #2 — total luciferase, z-score: 1.06; activity call: inactive
METTL23 (methyltransferase 23, arginine) #3 — total luciferase, z-score: 0.759; activity call: inactive
TMEM41B (transmembrane protein 41B) #1 — total luciferase, z-score: 0.916; activity call: inactive
TMEM41B (transmembrane protein 41B) #2 — total luciferase, z-score: 1.86; activity call: inactive
TMEM41B (transmembrane protein 41B) #3 — total luciferase, z-score: -0.529; activity call: inactive

4 entries already listed, ordered by “total luciferase, z-score”, highest first:
METTL23 (methyltransferase 23, arginine) #2 — total luciferase, z-score: 1.06; activity call: inactive
TMEM41B (transmembrane protein 41B) #1 — total luciferase, z-score: 0.916; activity call: inactive
METTL23 (methyltransferase 23, arginine) #3 — total luciferase, z-score: 0.759; activity call: inactive
METTL23 (methyltransferase 23, arginine) #1 — total luciferase, z-score: -0.71; activity call: inactive

The results go on:
SVEP1 #1 — total luciferase, z-score: 1.57; activity call: inactive
SVEP1 #2 — total luciferase, z-score: -0.0363; activity call: inactive
SVEP1 #3 — total luciferase, z-score: -1.37; activity call: inactive
RAB1AP2 (RAB1A pseudogene 2) #1 — total luciferase, z-score: 2.27; activity call: inactive
RAB1AP2 (RAB1A pseudogene 2) #2 — total luciferase, z-score: 2.02; activity call: inactive
RAB1AP2 (RAB1A pseudogene 2) #3 — total luciferase, z-score: 1.45; activity call: inactive
SHKBP1 (SH3KBP1 binding protein 1) #1 — total luciferase, z-score: -0.202; activity call: inactive
SHKBP1 (SH3KBP1 binding protein 1) #2 — total luciferase, z-score: 0.466; activity call: inactive
SHKBP1 (SH3KBP1 binding protein 1) #3 — total luciferase, z-score: -1.1; activity call: inactive
PLSCR4 (phospholipid scramblase 4) #1 — total luciferase, z-score: -2.28; activity call: inactive
PLSCR4 (phospholipid scramblase 4) #2 — total luciferase, z-score: -1.56; activity call: inactive
PLSCR4 (phospholipid scramblase 4) #3 — total luciferase, z-score: -0.577; activity call: inactive
